# Data taken from article PMC7545189, “Structural characterization of the ICOS/ICOS-L immune complex reveals high molecular mimicry by therapeutic antibodies” (Nature Communications, 2020).
# No constants are given. Whether binding was seen depends on the method and setting. Some results given as binding are weak or reduced against the parent protein; the word gives no strength. Tags and fused reporters may be left off the sequences shown.
# T1: human ICOS-L ectodomain (residues 19-248), His-tagged, immobilised on Ni-NTA biosensors (human) (UniProt O75144)
# T1 sequence: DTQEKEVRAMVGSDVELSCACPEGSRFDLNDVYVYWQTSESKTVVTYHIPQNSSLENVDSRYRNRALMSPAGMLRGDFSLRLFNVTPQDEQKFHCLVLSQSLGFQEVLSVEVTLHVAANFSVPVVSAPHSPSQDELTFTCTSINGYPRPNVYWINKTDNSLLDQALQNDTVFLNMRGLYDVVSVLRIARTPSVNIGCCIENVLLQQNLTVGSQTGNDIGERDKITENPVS
# Target: T1, human ICOS-L ectodomain (residues 19-248), His-tagged, immobilised on Ni-NTA biosensors (human)
# Experiment: BLI; competition: immobilised ICOS-L with ICOS or ICOS + STIM003 Fab; immobilised ICOS with ICOS-L or ICOS-L + prezalumab Fab; both purified
binder,measurement,value
"human ICOS ectodomain (residues 21-138), untagged, disulfide-linked homodimer (receptor, UniProt Q9Y6W8 21-138, looked up, human ICOS ectodomain, UniProtKB Q9Y6W8, residues 21-138; Residues of the TEV site probably remain at the C-terminus after cleavage; also called ICOS WT; ICOS disulfide-linked homodimers; source: HEK 293F, transiently transfected, purified (HisTrap Ni-NTA, TEV digestion, second Ni-NTA, Superdex 200); not shown: Venus (monomeric variant), C-terminal, cleaved; His6, C-terminal, cleaved) EINGSANYEMFIFHNGGVQILCKYPDIVQQFKMQLLKGGQILCDLTKTKGSGNTVSIKSLKFCHSQLSNNSVSFFLYNLDHSHANYYFCNLSIFDPPPFKVTLTGGYLHIYESQLCCQ",binding,binds
